Among the data in publication PMC12172431 are binding values, retold here.

These are yes or no findings as the source states them, for the method shown. In cells and extracts the contact can be indirect. A yes stands for co-enrichment or nearness to the bait. Other partners may have been found. For some of these results: Sequences can lack the tags named with a protein.

Assay [1] has as its target T1, Flag-tagged Ac66 (AcMNPV) (UniProt P41467).
T1 sequence: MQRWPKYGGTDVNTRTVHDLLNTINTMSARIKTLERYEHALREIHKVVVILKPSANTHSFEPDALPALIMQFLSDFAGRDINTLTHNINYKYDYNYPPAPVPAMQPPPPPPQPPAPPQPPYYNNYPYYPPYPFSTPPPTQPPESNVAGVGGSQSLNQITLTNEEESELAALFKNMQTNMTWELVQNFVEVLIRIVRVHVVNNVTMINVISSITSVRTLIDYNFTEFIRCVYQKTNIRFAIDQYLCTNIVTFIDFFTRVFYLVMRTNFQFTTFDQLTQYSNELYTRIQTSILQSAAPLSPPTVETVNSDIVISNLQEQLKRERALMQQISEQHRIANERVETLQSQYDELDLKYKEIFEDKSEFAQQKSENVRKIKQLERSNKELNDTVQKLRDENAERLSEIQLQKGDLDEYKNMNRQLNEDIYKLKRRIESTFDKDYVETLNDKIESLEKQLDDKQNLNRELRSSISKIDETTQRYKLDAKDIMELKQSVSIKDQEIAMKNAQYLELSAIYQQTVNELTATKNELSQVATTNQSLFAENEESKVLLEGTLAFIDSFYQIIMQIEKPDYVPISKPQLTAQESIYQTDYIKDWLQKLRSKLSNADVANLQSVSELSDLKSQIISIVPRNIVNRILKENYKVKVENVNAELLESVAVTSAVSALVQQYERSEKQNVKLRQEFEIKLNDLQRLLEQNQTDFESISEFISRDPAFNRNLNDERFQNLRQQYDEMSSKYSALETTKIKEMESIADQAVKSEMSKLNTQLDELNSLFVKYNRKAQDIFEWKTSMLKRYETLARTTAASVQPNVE
Nature of the assay: affinity purification with mass spectrometry; Sf9 cells infected with vAcWT^Ac66Flag (MOI 5), collected at 48 h p.i.; IP with anti-Flag antibody, IgG as control; LC-MS/MS.

Assay [2] deals with T2, Ac51 (AcMNPV) (UniProt P41455).
T2 sequence: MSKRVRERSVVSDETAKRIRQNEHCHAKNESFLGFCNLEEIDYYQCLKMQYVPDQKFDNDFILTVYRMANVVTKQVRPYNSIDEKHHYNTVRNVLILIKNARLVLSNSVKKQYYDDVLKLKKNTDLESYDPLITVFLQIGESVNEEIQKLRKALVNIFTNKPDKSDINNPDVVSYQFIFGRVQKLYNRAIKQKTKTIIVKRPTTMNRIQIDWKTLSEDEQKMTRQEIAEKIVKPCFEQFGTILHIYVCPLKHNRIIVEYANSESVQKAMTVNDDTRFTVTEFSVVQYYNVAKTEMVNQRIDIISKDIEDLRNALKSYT
Nature of the assay: affinity purification with mass spectrometry; Sf9 cells infected with vAcWT (MOI 5), collected at 48 h p.i.; IP with anti-Ac51 antibody, IgG as control; LC-MS/MS.

B1: AcOrf-74 peptide (protein, UniProt P41473 1-265)
chain: MKINLCNIQFQSLINLLNLQATTMSLLNSNKIKADLIPDEDDPKKITLRLNSVPEEHTDDNSSIDLPLTTPKQKDDFMNAIKSFETLNIEPDIVKTEQADAPATSGDNNRKVVDANVDEYTVDGLKLKSKYVAYYKCLKILVDFLVMYVSKEVSMKEYEQVYTLGRQLYEVLRSIFVDEPFKLWLERNTHEFDNNKDKILETLQSELKLALADKDKLKTCTFKDIITNLLNTKLDCKYDCADEYIKPNCIVDTYNCCNLVFKKET
As for B1, in assay [1], the binding result is reported as “binds”.

B2: Ac132 (protein, UniProt P24730 1-219)
chain: MSDKTPTKKGGSHAMTLRERGVTKPPKKSEKLQQYKKAIAAEQTLRTTADVSSLQNPGESAVFQELERLENAVVVLENEQKRLYPILDTPLDNFIVAFVNPTYPMAYFVNTDYKLKLECARIRSDLLYKNKNEVAINRPKISSFKLQLNNVILDTIETIEYDLQNKVLTITAPVQDQELRKSIIYFNILNSDSWEVPKYMKKLFDEMQLEPPVILPLGL
For B2, the binding entry in assay [1] and in assay [2] was “binds” throughout.

B3: vp39 (protein, UniProt P17499 1-347)
chain: MALVPVGMAPRQMRVNRCIFASIVSFDACITYKSPCSPDAYHDDGWFICNNHLIKRFKMSKMVLPIFDEDDNQFKMTIARHLVGNKERGIKRILIPSATNYQDVFNLNSMMQAEQLIFHLIYNNENAVNTICDNLKYTEGFTSNTQRVIHSVYATTKSILDTTNPNTFCSRVSRDELRFFDVTNARALRGGAGDQLFNNYSGFLQNLIRRAVAPEYLQIDTEELRFRNCATCIIDETGLVASVPDGPELYNPIRSSDIMRSQPNRLQIRNVLKFEGDTRELDRTLSGYEEYPTYVPLFLGYQIINSENNFLRNDFIPRANPNATLGGGAVAGPAPGVAGEAGGGIAV
On to B3, for which, in assay [1], the binding entry is on record as “binds”.

B4: Chitinase (enzyme, UniProt P41684 18-551)
chain: IPGTPVIDWADRNYALVEINYEATAYENLIKPKEQVDVQVSWNVWNGDIGDIAYVLFDEQQVWKGDAESKRATIKVLVSGQFNMRVKLCNEDGCSVSDPVLVKVADTDGGHLAPLEYTWLENNKPGRREDKIVAAYFVEWGVYGRNFPVDKVPLPNLSHLLYGFIPICGGDGINDALKTIPGSFESLQRSCKGREDFKVAIHDPWAAVQKPQKGVSAWNEPYKGNFGQLMAAKLANPHLKILPSIGGWTLSDPFYFMHDVEKRNVFVDSVKEFLQVWKFFDGVDIDWEFPGGKGANPSLGDADGDAKTYILLLEELRAMLDDLEAQTGRVYELTSAISAGYDKIAVVNYAEAQKSLGKIFLMSYDFKGAWSNTDLGYQTTVYAPSWNSEELYTTHYAVDALLKQGVDPNKIIVGVAMYGRGWTGVTNYTNDNYFSGTGNGPGSGTWEDGVVDYRQIQKDLNNYVYTFDSAAQASYVFDKSKGDLISFDSVDSVLGKVKYVDRNKLGGLFAWEIDADNGDLLNAINAQFKPKDEL
As to B4, the binding entry in assay [1] is given as “binds”.

B5: p47 (protein, UniProt P34051 1-401)
chain: MFVTRLEHTTQFLPQACKLEDEVLVLYAIYLNGFDYTLPRFVKREVQVNADGFVRFDYNIKMFDFARFTDMTQTTPEDIDDYINLTRINSLSDHDLKMLQLVCRDRWYKGDVARLRRILQQKDVDDLVKFVCNVMWERAYEDHYTLGQQLSIRITTKLIQSGLDFKHQPDTTAPVSVRGWEDATFEKYLQSITSISEVIKRHVFSKKYICLEVAASYWSDAVESLQQENFRIILNSKTPYVLLIEMDDDKNSMVYLRKLAHLLENKIVNLLFVTDVEFYFKNGNFMFYLYNSLKFYYYCLKNKFAFENVDKEIFFLLYTIVALEWFNGGHLNSFTLEKSALYNPLELSTRRLNSIKRAAQHNRVINCDSEINMDYIRGKRVRTGAHYGKRVVNFDLNQSLH
Regarding B5, the binding result in assay [2] is on record as “binds”.

B6: Ac66 (protein, UniProt P41467 1-808)
chain: T1 sequence
Consider B6, for which, in assay [2], the binding result is recorded as “binds”.

B7: ME53 (protein, UniProt Q04719 1-449)
chain: MNRFFRENNIFDAPRTGGKGRAKSLPAPAANSPPSPVRPPPKSNIKPPTRISPPKQPMCTSPAKPLEHSSIVSKKPVVNRKDGYFVPPEFGNKFEGLPAYSDKLDFKQERDLRMHFMSDLERDIMKATLKFSTNYIMGYINSKDMRMTGKFASRPVKYKKTMEHMSDSRCTTCNYRFKDNTREWFLYVVVHIEKPLDDPDRIDICCQKCYLYHNVPKTSYEIYPSINLVDLSYLARERFFYQYIFPVSLEHTTEVKELRIDDHNCKVFEIIRRIIRNHKEPNERIQTIDLSTTGGLVLRETYTNIVLQRYRSMCTRPDVVDDVNCFILQEPSEMMAALQDNRFSGIKGTVFATVKVKKFTQVLDGAITFPLKPTTNNYCKLCKKTKLYYKNPVLYCTKCGFTNVYHFPEYSKFMYYFEAIKSFEMHNEMIIYYDLKMYKKLINIVNNNV
Consider B7, for which the binding result in assay [1] and in assay [2] was “binds” each time.

B8: Ac51 (protein, UniProt P41455 1-318)
chain: T2 sequence
With B8, in assay [1], the binding result was “binds”.
